Record: PubChem BioAssay AID743121 (NCATS, 2013)
Assay: 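Genes whose silencing strengthens cell killing by camptothecin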 (primary screen). Cells: MDA-MB-231 cells, a human breast cancer line. Knock-down reagent: single siRNA against human genes, 20 nM siRNA (0.8 pmol per well). Time to read-out: 120 h (drug added 48 h after transfection, read 72 h later). Treatment: camptothecin 20 nM (about EC30) for 72 h; vehicle 0.1% DMSO in parallel plates. Measured: 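CellTiter-Glo ATP signal, scaled to control siRNA as percent viability; sensitisation given as log2 of untreated divided by camptothecin-treated viability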. Direction: log2 vehicle/camptothecin viability: higher = stronger sensitisation to camptothecin; viability with camptothecin: higher = more viable cells. Units: viability with camptothecin in % of control. Active means: 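Active genes have an RSA gene-level p-value below 0.001, computed from the ratios of their separate siRNAs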.
In all, the deposit lists about 26,000 reagents; this is a part drawn at random. 167 of all reagents (0.63%) count as active. 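Calls are per gene from RSA p-values that are not deposited; an individual active-marked siRNA can sensitise only weakly.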 Reagents against one gene are numbered here. Further read-outs or replicates are left out here.

With knock-down of GTF2H4 (GeneID 2968) #1, the record shows log2 vehicle/camptothecin viability -0.458; viability with camptothecin 60.4; inactive.
For GTF2H4 (GeneID 2968) #2 the deposit lists log2 vehicle/camptothecin viability -0.387; viability with camptothecin 74.1; inactive.
For GTF2H4 (GeneID 2968) #3 the deposit lists log2 vehicle/camptothecin viability 0.00441; viability with camptothecin 100; inactive.
Depletion of GTF2H4 (GeneID 2968) #4 gave: log2 vehicle/camptothecin viability 0.855; viability with camptothecin 17.4; inactive.
With knock-down of TM2D1 (GeneID 83941) #1 the results were log2 vehicle/camptothecin viability -0.33; viability with camptothecin 120; inactive.
Against TM2D1 (GeneID 83941) #2, the values are log2 vehicle/camptothecin viability -0.108; viability with camptothecin 32; inactive.
Depletion of TM2D1 (GeneID 83941) #3 gave: log2 vehicle/camptothecin viability 0.102; viability with camptothecin 82.9; inactive.
Against TM2D1 (GeneID 83941) #4 the deposit lists log2 vehicle/camptothecin viability -0.456; viability with camptothecin 88.7; inactive.
Depletion of G2E3 (GeneID 55632) #1 gave: log2 vehicle/camptothecin viability 0.00874; viability with camptothecin 90.9; inactive.
For G2E3 (GeneID 55632) #2, the entry reads log2 vehicle/camptothecin viability -0.141; viability with camptothecin 92.7; inactive.
Knock-down of G2E3 (GeneID 55632) #3 came out at: log2 vehicle/camptothecin viability 0.986; viability with camptothecin 11.9; inactive.
G2E3 (GeneID 55632) #4 gave log2 vehicle/camptothecin viability 0.295; viability with camptothecin 69.7; inactive.
With knock-down of BDNF (GeneID 627) #1, the record shows log2 vehicle/camptothecin viability -0.167; viability with camptothecin 117; inactive.
With knock-down of BDNF (GeneID 627) #2, the screen gave log2 vehicle/camptothecin viability -0.467; viability with camptothecin 89.5; inactive.
With knock-down of BDNF (GeneID 627) #3 the results were log2 vehicle/camptothecin viability 0.115; viability with camptothecin 92.2; inactive.
BDNF (GeneID 627) #4 scored log2 vehicle/camptothecin viability -0.124; viability with camptothecin 80.5; inactive.
Depletion of GAN (GeneID 8139) #1 resulted in: log2 vehicle/camptothecin viability -0.249; viability with camptothecin 101; inactive.
For GAN (GeneID 8139) #2, the values are log2 vehicle/camptothecin viability -0.00508; viability with camptothecin 42.7; inactive.
Depletion of GAN (GeneID 8139) #3 gave: log2 vehicle/camptothecin viability 0.203; viability with camptothecin 84.4; inactive.
After knock-down of GAN (GeneID 8139) #4 the results were log2 vehicle/camptothecin viability -0.0771; viability with camptothecin 117; inactive.

Reprinted from above for reference:
G2E3 (GeneID 55632) #1 → log2 vehicle/camptothecin viability: 0.00874; viability with camptothecin: 90.9; call: inactive
G2E3 (GeneID 55632) #2 → log2 vehicle/camptothecin viability: -0.141; viability with camptothecin: 92.7; call: inactive

Continued.
Silencing of TPP2 (GeneID 7174) #1 came out at: log2 vehicle/camptothecin viability -0.565; viability with camptothecin 101; inactive.
Against TPP2 (GeneID 7174) #2, the entry reads log2 vehicle/camptothecin viability -0.057; viability with camptothecin 92.4; inactive.
Against TPP2 (GeneID 7174) #3, the entry reads log2 vehicle/camptothecin viability -0.102; viability with camptothecin 119; inactive.
Knock-down of TPP2 (GeneID 7174) #4 came out at: log2 vehicle/camptothecin viability -0.0916; viability with camptothecin 104; inactive.
Against TOMM40L (GeneID 84134) #1, the values are log2 vehicle/camptothecin viability -0.154; viability with camptothecin 110; inactive.
Silencing of TOMM40L (GeneID 84134) #2 resulted in: log2 vehicle/camptothecin viability 0.458; viability with camptothecin 39.5; inactive.
After knock-down of TOMM40L (GeneID 84134) #3, the screen gave log2 vehicle/camptothecin viability -0.191; viability with camptothecin 57.1; inactive.
After knock-down of TGFBR1 (GeneID 7046) #1 the results were log2 vehicle/camptothecin viability 0.27; viability with camptothecin 56.4; inactive.
Depletion of TGFBR1 (GeneID 7046) #2 resulted in: log2 vehicle/camptothecin viability -0.306; viability with camptothecin 103; inactive.
Depletion of TGFBR1 (GeneID 7046) #3 gave: log2 vehicle/camptothecin viability -0.341; viability with camptothecin 84.6; inactive.
Silencing of TGFBR1 (GeneID 7046) #4 gave: log2 vehicle/camptothecin viability -0.171; viability with camptothecin 56; inactive.
For HES4 (GeneID 57801) #1, the values are log2 vehicle/camptothecin viability 0.072; viability with camptothecin 91.9; inactive.
HES4 (GeneID 57801) #2 scored log2 vehicle/camptothecin viability 0.338; viability with camptothecin 9.3; inactive.
After knock-down of HES4 (GeneID 57801) #3, the record shows log2 vehicle/camptothecin viability -0.0511; viability with camptothecin 61.5; inactive.
After knock-down of HES4 (GeneID 57801) #4, the screen gave log2 vehicle/camptothecin viability 0.487; viability with camptothecin 21.3; inactive.
